Amino acid sequences for entries named in this document (tags omitted). A change or cut given only in a name is not applied to a line headed by its entry.
UniProt Q03919: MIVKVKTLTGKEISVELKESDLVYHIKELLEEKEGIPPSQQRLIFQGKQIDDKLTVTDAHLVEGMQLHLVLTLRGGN
UniProt P52286: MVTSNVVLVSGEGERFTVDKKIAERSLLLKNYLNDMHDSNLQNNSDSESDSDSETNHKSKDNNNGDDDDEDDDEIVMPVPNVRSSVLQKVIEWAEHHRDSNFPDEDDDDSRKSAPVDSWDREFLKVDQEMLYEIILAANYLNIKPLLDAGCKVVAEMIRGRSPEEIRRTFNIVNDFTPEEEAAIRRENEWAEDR
UniProt P08536: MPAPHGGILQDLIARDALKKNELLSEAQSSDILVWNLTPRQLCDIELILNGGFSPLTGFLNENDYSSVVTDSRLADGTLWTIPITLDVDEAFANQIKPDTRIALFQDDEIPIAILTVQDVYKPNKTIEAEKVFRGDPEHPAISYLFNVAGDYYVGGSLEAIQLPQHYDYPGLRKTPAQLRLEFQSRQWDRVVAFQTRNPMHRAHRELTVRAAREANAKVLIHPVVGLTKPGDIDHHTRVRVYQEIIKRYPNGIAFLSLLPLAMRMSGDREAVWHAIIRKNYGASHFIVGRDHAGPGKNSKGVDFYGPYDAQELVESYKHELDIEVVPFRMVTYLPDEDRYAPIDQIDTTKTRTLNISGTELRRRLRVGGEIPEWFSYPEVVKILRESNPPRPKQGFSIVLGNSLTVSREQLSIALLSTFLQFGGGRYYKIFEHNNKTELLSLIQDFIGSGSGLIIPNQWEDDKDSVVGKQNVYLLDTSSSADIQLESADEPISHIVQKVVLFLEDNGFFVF

According to article PMC7677368:

T1: N-terminal 2xHA-tagged PfNEDD8 expressed in S. cerevisiae rub1Δ (P. falciparum) (UniProt Q8IEI4)
T1 sequence: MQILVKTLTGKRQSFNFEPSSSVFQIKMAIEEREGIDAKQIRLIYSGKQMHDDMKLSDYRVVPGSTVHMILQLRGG


Columns and labels:
[1] = molecular target: N-terminal 2xHA-tagged S. cerevisiae Rub1 expressed in S. cerevisiae rub1Δ (S. cerevisiae) (UniProt Q03919); assay: affinity purification with mass spectrometry; lysates of rub1Δ[HA-PfN8] and rub1Δ[HA-rub1] S. cerevisiae (0.5% NP-40, 150 mM NaCl, pH 7.5) immunoprecipitated with mouse anti-HA antibody on protein A/G magnetic beads, overnight at 4 °C; wild type strain as control; eluate by LC-MS/MS
[2] = molecular target: T1, N-terminal 2xHA-tagged PfNEDD8 expressed in S. cerevisiae rub1Δ (P. falciparum); assay: as above

| Molecule | binding [1] | binding [2] |
| --- | --- | --- |
| S. cerevisiae suppressor of kinetochore protein 1 (from UniProt P52286 1-194) | binds | binds |
| S. cerevisiae sulfate adenylyl transferase (from UniProt P08536 1-511) (enzyme) | binds | binds |
| S. cerevisiae NADP-specific glutamate dehydrogenase 1 (enzyme, UniProt P07262 1-454) MSEPEFQQAYEEVVSSLEDSTLFEQHPEYRKVLPIVSVPERIIQFRVTWENDKGEQEVAQGYRVQYNSAKGPYKGGLRFHPSVNLSILKFLGFEQIFKNSLTGLDMGGGKGGLCVDLKGRSNNEIRRICYAFMRELSRHIGQDTDVPAGDIGVGGREIGYLFGAYRSYKNSWEGVLTGKGLNWGGSLIRPEATGYGLVYYTQAMIDYATNGKESFEGKRVTISGSGNVAQYAALKVIELGGTVVSLSDSKGCIISETGITSEQVADISSAKVNFKSLEQIVNEYSTFSENKVQYIAGARPWTHVQKVDIALPCATQNEVSGEEAKALVAQGVKFIAEGSNMGSTPEAIAVFETARSTATGPSEAVWYGPPKAANLGGVAVSGLEMAQNSQRITWTSERVDQELKRIMINCFNECIDYAKKYTKDGKVLPSLVKGANIASFIKVSDAMFDQGDVF | binds | binds |
| S. cerevisiae cell division control protein 53 (protein, UniProt Q12018 1-815) MSETLPRSDDLEATWNFIEPGINQILGNEKNQASTSKRVYKILSPTMYMEVYTAIYNYCVNKSRSSGHFSTDSRTGQSTILVGSEIYEKLKNYLKNYILNFKQSNSETFLQFYVKRWKRFTIGAIFLNHAFDYMNRYWVQKERSDGKRHIFDVNTLCLMTWKEVMFDPSKDVLINELLDQVTLGREGQIIQRSNISTAIKSLVALGIDPQDLKKLNLNVYIQVFEKPFLKKTQEYYTQYTNDYLEKHSVTEYIFEAHEIIKREEKAMTIYWDDHTKKPLSMALNKVLITDHIEKLENEFVVLLDARDIEKITSLYALIRRDFTLIPRMASVFENYVKKTGENEISSLLAMHKHNIMKNENANPKKLALMTAHSLSPKDYIKKLLEVHDIFSKIFNESFPDDIPLAKALDNACGAFININEFALPAGSPKSATSKTSEMLAKYSDILLKKATKPEVASDMSDEDIITIFKYLTDKDAFETHYRRLFAKRLIHGTSTSAEDEENIIQRLQAANSMEYTGKITKMFQDIRLSKILEDDFAVALKNEPDYSKAKYPDLQPFVLAENMWPFSYQEVEFKLPKELVPSHEKLKESYSQKHNGRILKWLWPLCRGELKADIGKPGRMPFNFTVTLFQMAILLLYNDADVLTLENIQEGTSLTIQHIAAAMVPFIKFKLIQQVPPGLDALVKPETQFKLSRPYKALKTNINFASGVKNDILQSLSGGGHDNHGNKLGNKRLTEDERIEKELNTERQIFLEACIVRIMKAKRNLPHTTLVNECIAQSHQRFNAKVSMVKRAIDSLIQKGYLQRGDDGESYAYLA | binds | binds |
| S. cerevisiae homocysteine methyltransferase (enzyme, UniProt P05694 1-767) MVQSAVLGFPRIGPNRELKKATEGYWNGKITVDELFKVGKDLRTQNWKLQKEAGVDIIPSNDFSFYDQVLDLSLLFNVIPDRYTKYDLSPIDTLFAMGRGLQRKATETEKAVDVTALEMVKWFDSNYHYVRPTFSKTTQFKLNGQKPVDEFLEAKELGIHTRPVLLGPVSYLFLGKADKDSLDLEPLSLLEQLLPLYTEILSKLASAGATEVQIDEPVLVLDLPANAQAAIKKAYTYFGEQSNLPKITLATYFGTVVPNLDAIKGLPVAALHVDFVRAPEQFDEVVAAIGNKQTLSVGIVDGRNIWKNDFKKSSAIVNKAIEKLGADRVVVATSSSLLHTPVDLNNETKLDAEIKGFFSFATQKLDEVVVITKNVSGQDVAAALEANAKSVESRGKSKFIHDAAVKARVASIDEKMSTRAAPFEQRLPEQQKVFNLPLFPTTTIGSFPQTKDIRINRNKFNKGTISAEEYEKFINSEIEKVIRFQEEIGLDVLVHGEPERNDMVQYFGEQINGYAFTVNGWVQSYGSRYVRPPIIVGDLSRPKAMSVKESVYAQSITSKPVKGMLTGPITCLRWSFPRDDVDQKTQAMQLALALRDEVNDLEAAGIKVIQVDEPALREGLPLREGTERSAYYTWAAEAFRVATSGVANKTQIHSHFCYSDLDPNHIKALDADVVSIEFSKKDDANYIAEFKNYPNHIGLGLFDIHSPRIPSKDEFIAKISTILKSYPAEKFWVNPDCGLKTRGWEETRLSLTHMVEAAKYFREQYKN | binds | binds |
| S. cerevisiae peroxiredoxin TSA1 (enzyme, UniProt P34760 1-196) MVAQVQKQAPTFKKTAVVDGVFDEVSLDKYKGKYVVLAFIPLAFTFVCPTEIIAFSEAAKKFEEQGAQVLFASTDSEYSLLAWTNIPRKEGGLGPINIPLLADTNHSLSRDYGVLIEEEGVALRGLFIIDPKGVIRHITINDLPVGRNVDEALRLVEAFQWTDKNGTVLPCNWTPGAATIKPTVEDSKEYFEAANK | binds | binds |
| S. cerevisiae NEDD8-activating enzyme E1 catalytic subunit (enzyme, UniProt Q99344 1-299) MDCKILVLGAGGLGCEILKNLTMLSFVKQVHIVDIDTIELTNLNRQFLFCDKDIGKPKAQVAAQYVNTRFPQLEVVAHVQDLTTLPPSFYKDFQFIISGLDAIEPRRFINETLVKLTLESNYEICIPFIDGGTEGLKGHVKTIIPGITACWECSIDTLPSQQDTVPMCTIANNPRCIEHVVEYVSTIQYPDLNIESTADMEFLLEKCCERAAQFSISTEKLSTSFILGIIKSIIPSVSTTNAMVAATCCTQMVKIYNDLIDLENGNNFTLINCSEGCFMYSFKFERLPDCTVCSNSNSN | binds | binds |
| S. cerevisiae RING-box protein HRT1 (protein, UniProt Q08273 1-121) MSNEVDRMDVDEDESQNIAQSSNQSAPVETKKKRFEIKKWTAVAFWSWDIAVDNCAICRNHIMEPCIECQPKAMTDTDNECVAAWGVCNHAFHLHCINKWIKTRDACPLDNQPWQLARCGR | binds | binds |
| S. cerevisiae SCF E3 ubiquitin ligase complex F-box protein GRR1 (protein, UniProt P24814 1-1151) MDQDNNNHNDSNRLHPPDIHPNLGPQLWLNSSGDFDDNNNNNNNNNNNNSTRPQMPSRTRETATSERNASEVRDATLNNIFRFDSIQRETLLPTNNGQPLNQNFSLTFQPQQQTNALNGIDINTVNTNLMNGVNVQIDQLNRLLPNLPEEERKQIHEFKLIVGKKIQEFLVVIEKRRKKILNEIELDNLKLKELRIDNSPQAISYLHKLQRMRLRALETENMEIRNLRLKILTIIEEYKKSLYAYCHSKLRGQQVENPTDNFIIWINSIDTTESSDLKEGLQDLSRYSRQFINNVLSNPSNQNICTSVTRRSPVFALNMLPSEILHLILDKLNQKYDIVKFLTVSKLWAEIIVKILYYRPHINKKSQLDLFLRTMKLTSEETVFNYRLMIKRLNFSFVGDYMHDTELNYFVGCKNLERLTLVFCKHITSVPISAVLRGCKFLQSVDITGIRDVSDDVFDTLATYCPRVQGFYVPQARNVTFDSLRNFIVHSPMLKRIKITANNNMNDELVELLANKCPLLVEVDITLSPNVTDSSLLKLLTRLVQLREFRITHNTNITDNLFQELSKVVDDMPSLRLIDLSGCENITDKTIESIVNLAPKLRNVFLGKCSRITDASLFQLSKLGKNLQTVHFGHCFNITDNGVRALFHSCTRIQYVDFACCTNLTNRTLYELADLPKLKRIGLVKCTQMTDEGLLNMVSLRGRNDTLERVHLSYCSNLTIYPIYELLMSCPRLSHLSLTAVPSFLRPDITMYCRPAPSDFSENQRQIFCVFSGKGVHKLRHYLVNLTSPAFGPHVDVNDVLTKYIRSKNLIFNGETLEDALRRIITDLNQDSAAIIAATGLNQINGLNNDFLFQNINFERIDEVFSWYLNTFDGIRMSSEEVNSLLLQVNKTFCEDPFSDVDDDQDYVVAPGVNREINSEMCHIVRKFHELNDHIDDFEVNVASLVRVQFQFTGFLLHEMTQTYMQMIELNRQICLVQKTVQESGNIDYQKGLLIWRLLFIDKFIMVVQKYKLSTVVLRLYLKDNITLLTRQRELLIAHQRSAWNNNNDNDANRNANNIVNIVSDAGANDTSNNETNNGNDDNETENPNFWRQFGNRMQISPDQMRNLQMGLRNQNMVRNNNNNTIDESMPDTAIDSQMDEASGTPDEDML | binds | binds |
| S. cerevisiae NEDD8-activating enzyme E1 regulatory subunit (enzyme, UniProt Q12059 1-462) MERYDRQLRLWGALGQDSLNRSRVCVVGPATPLLQEVFKNLVLAGISSLTWLKVECAVQSGSLFLAELKKDLEPLASKQLEYEENDLRKTLQQPQYDWTRFSVVILTCIGEQTAMLDLNEIRRQRGTKFPPVLNTFVSGFYGYIYLVLSETHFVLQAHPDSKKYDLRLQNPWPELINYVDTFDLSKMDTATFSGIPYTVLLMKCIAKLERDGNNGRITIDQMKKVLDQICLPLGNDVIYEPNYVEAKRYAYLACSQNDCCKELEDLLRNLEISDYGNDWHDTYNYEILTLLLTLKNIAKENGELSFQPLTGTLPDMESTTENYIRLKKLYEVKAKLDKSRVEESLARSKKIVSQDVLETFCSHYGEVRKILPPKSDLLGIFSTSNALLDALVMVQFWEQPAVTAEDKDEFIGLRVDDNYSVMAFFGGAVVQEAIKLITHHYVPIDNLFLYNGINNSSATYKI | binds | binds |
| S. cerevisiae F-box protein DAS1 (protein, UniProt P47005 1-663) MPFQDYFQKKKAAFINRNNKSNADASALRDINDININFAAKSKNYVFPLTKLPDELMQEVFSHLPQPDRLQLCLVNKRLNKIATKLLYRRIYLNDSNVVKSDFMHLAINWTLLNLPSSLKEEESRDIANCKLKKLIETLQNNIHITEVIQWIRINWDLDSTLQRSILSILCNQGKSLQRLENVTDPACNDIISNGHFSRSNVSSFDMAPPNSLPEMVVPENYIPNLTKYLSQRISSRLSHMTLFIDPLKLFNYLYPLDIKLQIIDLKLHWRREFYNNDYFVKKIRPGNPLTKLSEVFDKRTLKILTIISWNDTLLKRETEMLKDFKEFENLEDLSLISIKQDVHILVDLFSSLTNLKRLKMDFLEEYVPEPTNPHIFLSILLACSKLQFIDLRYDGLIPQIINIQENKFQLNQQCNCTNCQIVFSDILKGKIFMFPEDYYIHDLQDIAAKDIFKMMKYLSLLPYSKACDAYPSVRTQPMNLTNFVTKMNRNLLEYRNSKSQLVPKIVNNPHQHSTVTSTSTAHMSEPEMIIIDDDDDDDEINAAIPPSSDDTAATISTDLELPHESLTKRDIIMCYHALIHHFKSIYVTFLKSFPHLRFLMLNDIPTIVMEENNERIFEPVFYHYDYKSNLYGWSKESNKNLENDSNNNNNNSDTIARIATVM | binds | binds |

These are yes or no findings as the source states them, for the method shown. Binding seen in cells or lysates may run through a third protein. These calls come from enrichment with a bait or labelling near it, and not all partners need be listed. For some of these results: Tags and fused reporters may be left off the sequences shown.
